Some of these results come from one statement about several compounds together.
Legend:
reactive oxygen species = experiment: Reactive oxygen species in 293 ATXN3/Q75-GFP cells (CellROX, flow cytometry); conditions: 293 ATXN3/Q75-GFP cells +Dox 6 days, 100 nM; +Dox alone 168%; range over indole and NC001-8
HEK-293 cells = experiment: MTT cytotoxicity against HEK-293 cells; conditions: read-out: IC50 (cytotoxicity) against HEK-293 cells; MTT assay, 24 hours, highest concentration tested 1 mM

Molecule | reactive oxygen species (reactive oxygen species) | IC50 (HEK-293 cells) [µM]
O=C1CCc2[nH]c3ccccc3c21 [NC001-8, 3,4-dihydrocyclopenta[b]indol-1(2H)-one] | 123-428% | 
c1ccc2[nH]ccc2c1 [indole] | 123-428% | 
geranylgeranylacetone [GGA, reference compound] |  | > 1000

Source: patent publication US9393229B2, “Method for treating abnormal polyglutamine-mediated disease” (NATIONAL TAIWAN NORMAL UNIVERSITY, priority 2013, dated 2016)
